Measured data: PubChem BioAssay AID686938 (Drosophila RNAi Screening Center, 2013)

Screen: 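Looking for CRAC channel components and the factors controlling them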 (primary screen)
System: Drosophila S2R+ cells
Reagents: long dsRNA against Drosophila genes, about 0.25 µg dsRNA per well, roughly 10,000 cells
Duration: 5 days of knock-down before the calcium assay
Treatment: thapsigargin (SERCA pump blocker) to empty calcium stores; entry signal taken 4 min after adding it
Measured: 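Per-well fluo-4 fluorescence in two replicates, unnormalised, measured in resting cells and 4 min after store depletion by the SERCA blocker thapsigargin; ratio of the two present in few wells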
Direction: calcium entry signal: higher = stronger calcium signal after store depletion; resting calcium signal: higher = higher resting calcium signal
Active means: 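Hit if the duplicate-averaged plate z-score for entry over resting signal is under −3; wells with weak total dye signal (Fmax z < −2) or more than 5 off-targets removed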
Meaning of the calls: active = strongly reduced calcium entry; inactive = no strong reduction
The deposit covers about 23,000 reagents; below is a random part of those with a known target gene and a result. Over the whole deposit, 75 (0.33%) are marked active. 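Raw plate signals without normalisation; calls rest on plate z-scores that were not deposited; ratio present for only 364 wells.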 Entries without a mark were called inactive. Reagents against one gene are numbered here. A plus sign joins genes that one reagent is predicted to hit. The record does not give: the dose of the treatment.

| target gene | dsRNA no. | calcium entry signal, replicate 1 (fluorescence units) | calcium entry signal, replicate 2 (fluorescence units) | resting calcium signal, replicate 1 (fluorescence units) | resting calcium signal, replicate 2 (fluorescence units) |
| --- | --- | --- | --- | --- | --- |
| Nab2 | 1 | 3.06e7 | 3.04e7 | 1.45e7 | 1.22e7 |
| Rcc1 | 1 | 2.72e7 | 2.42e7 | 2.25e7 | 1.26e7 |
| RanBPM | 1 | 5.76e7 | 4.49e7 | 2.39e7 | 2.12e7 |
| CG43428 | 1 | 2.75e7 | 3.96e7 | 1.47e7 | 1.84e7 |
| Nop56 | 1 | 1.64e7 | 1.87e7 | 1.01e7 | 1.02e7 |
| Cf2 | 1 | 2.70e7 | 3.44e7 | 1.43e7 | 1.65e7 |
| Cf2 | 2 | 3.90e7 | 3.92e7 | 1.79e7 | 1.69e7 |
| CG10232 | 1 | 4.00e7 | 3.85e7 | 2.03e7 | 1.87e7 |
| CG2145 | 1 | 2.16e7 | 2.72e7 | 9.78e6 | 1.26e7 |
| Mst98Ca | 1 | 3.79e7 | 3.76e7 | 1.76e7 | 2.06e7 |
| CG5770 | 1 | 3.52e7 | 3.76e7 | 1.68e7 | 1.79e7 |
| CG4891 | 1 | 4.38e7 | – | 2.07e7 | – |
| CG10764 | 1 | 3.03e7 | 2.74e7 | 1.25e7 | 1.35e7 |
| CG30413 | 1 | 1.90e7 | 3.38e7 | 1.07e7 | 1.44e7 |
| Agxt | 1 | 3.60e7 | 3.34e7 | 1.74e7 | 1.57e7 |
| Ccm3 | 1 | 2.19e7 | 3.80e7 | 1.10e7 | 5.19e7 |
| yata | 1 | 4.34e7 | 5.37e7 | 2.17e7 | 2.33e7 |
| MED31 | 1 | 2.83e7 | 4.17e7 | 1.52e7 | 2.71e7 |
| Vha26 | 1 | 3.46e7 | 3.12e7 | 2.58e7 | 2.25e7 |
| Cht2 | 1 | 4.38e7 | 3.82e7 | 1.86e7 | 1.99e7 |
| bru3 | 1 | 4.33e7 | 4.20e7 | 2.07e7 | 1.92e7 |
| bru3 | 2 | 3.09e7 | 3.58e7 | 1.43e7 | 1.46e7 |
| bru3 | 3 | 2.94e7 | 3.19e7 | 1.35e7 | 1.36e7 |
| bru3 | 4 | 2.84e7 | 4.00e7 | 1.28e7 | 2.49e7 |
| bru3 | 5 | 3.04e7 | 4.83e7 | 1.49e7 | 2.15e7 |
| bru3 | 6 | 4.61e7 | 3.94e7 | 2.39e7 | 1.79e7 |
| CG42562 | 1 | 4.67e7 | 6.32e7 | 2.21e7 | 3.01e7 |
| CG8531 | 1 | 3.59e7 | 4.39e7 | 1.58e7 | 1.97e7 |
| kis | 1 | 3.49e7 | 4.01e7 | 1.54e7 | 1.65e7 |
| kis | 2 | 4.92e7 | 5.14e7 | 2.18e7 | 2.07e7 |
| kis | 3 | 3.43e7 | – | 1.77e7 | – |
| Ir8a | 1 | 3.20e7 | 3.40e7 | 1.58e7 | 1.66e7 |
| Ir8a | 2 | 3.07e7 | 3.30e7 | 1.49e7 | 1.49e7 |
| Ccp84Ad | 1 | 5.12e7 | 3.61e7 | 2.73e7 | 1.57e7 |
| Ccp84Ad | 2 | 2.50e7 | 3.75e7 | 1.23e7 | 1.68e7 |
| CG8870 | 1 | 2.84e7 | 3.57e7 | 1.46e7 | 6.58e7 |
| mRpS14 | 1 | 3.86e7 | 4.67e7 | 1.96e7 | 2.04e7 |
| rec | 1 | 2.62e7 | 4.74e7 | 1.36e7 | 6.07e7 |
| rec | 2 | 2.89e7 | 4.72e7 | 1.43e7 | 6.08e7 |
| CG33771 | 1 | 6.78e7 | 2.25e7 | 3.37e7 | 1.21e7 |
| MED11 | 1 | 1.68e7 | 2.23e7 | 1.23e7 | 1.27e7 |
| MED11 | 2 | 3.08e7 | 2.34e7 | 1.74e7 | 1.24e7 |
| ctp | 1 | 2.02e7 | 1.80e7 | 9.96e6 | 9.70e6 |
| CG42507 + Trl | 1 | 4.63e7 | 3.90e7 | 2.02e7 | 1.85e7 |
| CG42507 + Trl | 2 | 2.57e7 | 1.95e7 | 2.14e7 | 1.24e7 |
| sit | 1 | 3.66e7 | 5.07e7 | 1.73e7 | 1.87e7 |
| CG6271 | 1 | 3.14e7 | 3.68e7 | 1.45e7 | 1.70e7 |
| Keap1 | 1 | 4.58e7 | 3.50e7 | 2.20e7 | 1.72e7 |
| CG43078 | 1 | 3.80e7 | 3.09e7 | 2.51e7 | 1.36e7 |
| CG43078 | 2 | 3.85e7 | 2.93e7 | 2.48e7 | 1.22e7 |
| CG43078 | 3 | 3.37e7 | 3.99e7 | 2.05e7 | 1.72e7 |
| CG43078 | 4 | 3.66e7 | 4.42e7 | 1.71e7 | 2.50e7 |
| CG17684 | 1 | 2.86e7 | 5.88e7 | 1.41e7 | 2.77e7 |
| CG17684 | 2 | 5.25e7 | 4.81e7 | 2.51e7 | 1.90e7 |
| mRpS7 | 1 | 6.26e7 | – | 2.81e7 | – |
| fus | 1 | 4.74e7 | 4.99e7 | 2.60e7 | 2.04e7 |
| fus | 2 | 3.27e7 | 2.66e7 | 1.36e7 | 1.26e7 |
| exd | 1 | 4.52e7 | 2.77e7 | 2.28e7 | 1.43e7 |
| CG43188 | 1 | 3.32e7 | 5.19e7 | 1.68e7 | 2.13e7 |
| CG15657 | 1 | 3.56e7 | 4.01e7 | 1.95e7 | 1.77e7 |
| Qsox3 | 1 | 4.52e7 | 4.63e7 | 6.23e7 | 2.26e7 |
| CG34195 | 1 | 4.02e7 | 4.72e7 | 1.76e7 | 2.36e7 |
| Npl4 | 1 | 2.93e7 | 4.30e7 | 1.44e7 | 2.10e7 |
| Npl4 | 2 | 2.60e7 | 2.03e7 | 1.40e7 | 1.15e7 |
| mys | 1 | 2.70e7 | 4.05e7 | 1.22e7 | 1.82e7 |
| arx | 1 | 3.15e7 | 4.35e7 | 1.52e7 | 2.95e7 |
| eIF3j | 1 | 3.39e7 | 2.47e7 | 1.46e7 | 1.23e7 |
| CR14033 | 1 | 4.19e7 | – | 2.22e7 | – |
| epsilonTry | 1 | 2.68e7 | 4.01e7 | 1.41e7 | 1.70e7 |
| CG6066 | 1 | 4.67e7 | 6.00e7 | 2.47e7 | 2.47e7 |
| CG6066 | 2 | 3.78e7 | 6.72e7 | 1.75e7 | 3.07e7 |
| Klp61F | 1 | 1.87e7 | 1.64e7 | 1.34e7 | 1.24e7 |
| CG10481 | 1 | 2.59e7 | 4.51e7 | 1.34e7 | 1.89e7 |
| Mmp2 | 1 | 3.67e7 | 4.41e7 | 1.82e7 | 1.74e7 |
| Mmp2 | 2 | 2.36e7 | 4.01e7 | 1.18e7 | 2.07e7 |

In a second layout: entries from further up.
CG8531 | calcium entry signal, replicate 1 (fluorescence units): 3.59e7; calcium entry signal, replicate 2 (fluorescence units): 4.39e7; resting calcium signal, replicate 1 (fluorescence units): 1.58e7; resting calcium signal, replicate 2 (fluorescence units): 1.97e7
kis #1 | calcium entry signal, replicate 1 (fluorescence units): 3.49e7; calcium entry signal, replicate 2 (fluorescence units): 4.01e7; resting calcium signal, replicate 1 (fluorescence units): 1.54e7; resting calcium signal, replicate 2 (fluorescence units): 1.65e7
kis #2 | calcium entry signal, replicate 1 (fluorescence units): 4.92e7; calcium entry signal, replicate 2 (fluorescence units): 5.14e7; resting calcium signal, replicate 1 (fluorescence units): 2.18e7; resting calcium signal, replicate 2 (fluorescence units): 2.07e7
kis #3 | calcium entry signal, replicate 1 (fluorescence units): 3.43e7; resting calcium signal, replicate 1 (fluorescence units): 1.77e7
Ir8a #1 | calcium entry signal, replicate 1 (fluorescence units): 3.20e7; calcium entry signal, replicate 2 (fluorescence units): 3.40e7; resting calcium signal, replicate 1 (fluorescence units): 1.58e7; resting calcium signal, replicate 2 (fluorescence units): 1.66e7
Ir8a #2 | calcium entry signal, replicate 1 (fluorescence units): 3.07e7; calcium entry signal, replicate 2 (fluorescence units): 3.30e7; resting calcium signal, replicate 1 (fluorescence units): 1.49e7; resting calcium signal, replicate 2 (fluorescence units): 1.49e7
Ccp84Ad #1 | calcium entry signal, replicate 1 (fluorescence units): 5.12e7; calcium entry signal, replicate 2 (fluorescence units): 3.61e7; resting calcium signal, replicate 1 (fluorescence units): 2.73e7; resting calcium signal, replicate 2 (fluorescence units): 1.57e7
Ccp84Ad #2 | calcium entry signal, replicate 1 (fluorescence units): 2.50e7; calcium entry signal, replicate 2 (fluorescence units): 3.75e7; resting calcium signal, replicate 1 (fluorescence units): 1.23e7; resting calcium signal, replicate 2 (fluorescence units): 1.68e7
CG8870 | calcium entry signal, replicate 1 (fluorescence units): 2.84e7; calcium entry signal, replicate 2 (fluorescence units): 3.57e7; resting calcium signal, replicate 1 (fluorescence units): 1.46e7; resting calcium signal, replicate 2 (fluorescence units): 6.58e7
